Source: the supplement of paper PMC10849652
The list shows a part of the results.

Amino acid sequences for entries named in this document (tags omitted). A change or cut given only in a name is not applied to a line headed by its entry.
UniProt O77932: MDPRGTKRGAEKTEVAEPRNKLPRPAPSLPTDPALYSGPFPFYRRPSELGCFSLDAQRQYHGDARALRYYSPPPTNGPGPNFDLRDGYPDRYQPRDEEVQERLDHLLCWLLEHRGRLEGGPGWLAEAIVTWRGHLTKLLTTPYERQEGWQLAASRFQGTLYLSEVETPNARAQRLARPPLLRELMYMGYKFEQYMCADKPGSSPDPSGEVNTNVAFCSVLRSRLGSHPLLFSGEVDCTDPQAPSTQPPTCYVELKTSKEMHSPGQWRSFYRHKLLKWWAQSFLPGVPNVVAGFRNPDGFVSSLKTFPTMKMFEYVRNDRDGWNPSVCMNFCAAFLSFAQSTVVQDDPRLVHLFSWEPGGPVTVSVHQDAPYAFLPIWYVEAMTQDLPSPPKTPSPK
UniProt Q9BVM2: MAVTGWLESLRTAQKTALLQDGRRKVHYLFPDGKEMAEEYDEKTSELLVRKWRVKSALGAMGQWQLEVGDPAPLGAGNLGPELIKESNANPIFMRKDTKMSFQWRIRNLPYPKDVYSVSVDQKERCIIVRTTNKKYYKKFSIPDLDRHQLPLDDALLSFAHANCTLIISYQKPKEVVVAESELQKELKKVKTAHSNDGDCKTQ
UniProt Q96LL9: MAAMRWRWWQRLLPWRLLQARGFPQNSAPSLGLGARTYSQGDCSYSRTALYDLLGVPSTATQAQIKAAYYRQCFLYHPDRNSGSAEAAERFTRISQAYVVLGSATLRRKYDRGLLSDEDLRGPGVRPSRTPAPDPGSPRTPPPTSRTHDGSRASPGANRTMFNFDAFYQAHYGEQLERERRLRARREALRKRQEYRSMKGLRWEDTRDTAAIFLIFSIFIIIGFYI
UniProt Q05193: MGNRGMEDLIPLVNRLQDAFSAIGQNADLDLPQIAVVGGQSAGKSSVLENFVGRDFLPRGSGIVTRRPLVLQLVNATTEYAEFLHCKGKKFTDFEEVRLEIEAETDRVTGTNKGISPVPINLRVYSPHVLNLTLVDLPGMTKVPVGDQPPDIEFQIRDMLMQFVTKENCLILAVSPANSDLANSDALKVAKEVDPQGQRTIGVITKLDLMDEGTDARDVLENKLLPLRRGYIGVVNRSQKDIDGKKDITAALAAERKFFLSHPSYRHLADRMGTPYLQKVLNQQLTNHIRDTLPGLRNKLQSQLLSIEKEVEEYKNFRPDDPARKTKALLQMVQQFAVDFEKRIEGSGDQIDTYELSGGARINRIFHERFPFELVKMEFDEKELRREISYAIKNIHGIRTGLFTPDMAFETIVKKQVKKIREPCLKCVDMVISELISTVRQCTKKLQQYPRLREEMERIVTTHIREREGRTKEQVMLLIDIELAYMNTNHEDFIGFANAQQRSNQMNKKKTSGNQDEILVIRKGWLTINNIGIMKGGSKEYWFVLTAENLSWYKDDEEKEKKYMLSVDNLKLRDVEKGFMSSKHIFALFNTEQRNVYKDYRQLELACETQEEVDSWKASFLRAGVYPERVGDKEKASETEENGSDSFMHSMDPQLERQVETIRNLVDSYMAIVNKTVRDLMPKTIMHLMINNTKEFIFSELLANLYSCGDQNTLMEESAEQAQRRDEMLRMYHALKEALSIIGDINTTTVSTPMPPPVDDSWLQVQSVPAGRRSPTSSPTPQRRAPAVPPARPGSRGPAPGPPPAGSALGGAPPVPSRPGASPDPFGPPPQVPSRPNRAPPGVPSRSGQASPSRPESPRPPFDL
UniProt Q9UBS3: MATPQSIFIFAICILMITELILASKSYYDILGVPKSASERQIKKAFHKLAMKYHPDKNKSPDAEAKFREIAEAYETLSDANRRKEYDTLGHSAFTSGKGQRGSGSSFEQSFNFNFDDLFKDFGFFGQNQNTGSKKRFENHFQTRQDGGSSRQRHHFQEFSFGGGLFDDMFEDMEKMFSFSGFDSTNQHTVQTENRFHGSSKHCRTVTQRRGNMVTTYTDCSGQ
UniProt Q9NRR4: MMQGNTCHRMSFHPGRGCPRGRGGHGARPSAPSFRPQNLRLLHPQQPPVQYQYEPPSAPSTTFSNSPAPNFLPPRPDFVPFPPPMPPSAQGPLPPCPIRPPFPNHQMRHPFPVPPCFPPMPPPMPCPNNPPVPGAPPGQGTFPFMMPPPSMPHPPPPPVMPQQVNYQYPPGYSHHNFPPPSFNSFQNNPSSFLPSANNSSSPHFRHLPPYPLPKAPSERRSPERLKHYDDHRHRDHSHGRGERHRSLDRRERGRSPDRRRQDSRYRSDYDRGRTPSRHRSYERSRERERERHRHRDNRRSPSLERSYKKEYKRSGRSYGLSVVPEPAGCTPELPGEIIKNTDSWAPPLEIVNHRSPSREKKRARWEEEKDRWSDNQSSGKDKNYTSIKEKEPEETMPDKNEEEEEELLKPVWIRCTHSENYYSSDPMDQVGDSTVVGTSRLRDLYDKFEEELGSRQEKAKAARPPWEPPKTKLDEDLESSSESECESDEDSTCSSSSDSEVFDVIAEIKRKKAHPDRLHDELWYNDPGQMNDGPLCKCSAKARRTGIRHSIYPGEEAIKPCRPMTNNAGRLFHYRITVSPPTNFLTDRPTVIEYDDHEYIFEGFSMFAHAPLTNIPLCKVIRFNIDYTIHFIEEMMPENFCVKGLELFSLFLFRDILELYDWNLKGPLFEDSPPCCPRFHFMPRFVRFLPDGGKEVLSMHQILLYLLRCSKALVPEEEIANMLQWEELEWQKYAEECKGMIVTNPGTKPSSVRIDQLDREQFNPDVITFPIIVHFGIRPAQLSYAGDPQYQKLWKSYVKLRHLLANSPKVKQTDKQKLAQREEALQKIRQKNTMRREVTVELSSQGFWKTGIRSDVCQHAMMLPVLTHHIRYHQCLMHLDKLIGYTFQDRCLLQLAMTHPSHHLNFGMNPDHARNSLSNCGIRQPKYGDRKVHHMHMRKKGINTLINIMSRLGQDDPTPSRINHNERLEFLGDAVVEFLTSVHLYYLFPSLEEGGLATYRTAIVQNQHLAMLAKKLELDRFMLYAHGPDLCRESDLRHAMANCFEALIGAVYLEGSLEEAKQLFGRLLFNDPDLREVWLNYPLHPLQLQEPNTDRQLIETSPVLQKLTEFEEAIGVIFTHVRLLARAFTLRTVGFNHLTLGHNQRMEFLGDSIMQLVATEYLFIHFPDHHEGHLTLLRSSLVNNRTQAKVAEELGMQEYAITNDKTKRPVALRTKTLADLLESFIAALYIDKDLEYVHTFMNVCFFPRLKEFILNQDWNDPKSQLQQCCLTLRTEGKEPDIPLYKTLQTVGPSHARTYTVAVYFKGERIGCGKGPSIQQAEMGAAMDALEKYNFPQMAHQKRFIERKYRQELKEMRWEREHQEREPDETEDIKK
UniProt Q9NNZ3: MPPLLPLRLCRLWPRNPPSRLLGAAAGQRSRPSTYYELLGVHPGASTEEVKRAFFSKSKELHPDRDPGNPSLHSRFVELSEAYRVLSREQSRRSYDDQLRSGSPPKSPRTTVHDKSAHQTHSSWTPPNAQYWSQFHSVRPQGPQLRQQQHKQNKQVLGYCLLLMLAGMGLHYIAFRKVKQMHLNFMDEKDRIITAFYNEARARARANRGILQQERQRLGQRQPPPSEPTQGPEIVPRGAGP
UniProt Q8TCX1: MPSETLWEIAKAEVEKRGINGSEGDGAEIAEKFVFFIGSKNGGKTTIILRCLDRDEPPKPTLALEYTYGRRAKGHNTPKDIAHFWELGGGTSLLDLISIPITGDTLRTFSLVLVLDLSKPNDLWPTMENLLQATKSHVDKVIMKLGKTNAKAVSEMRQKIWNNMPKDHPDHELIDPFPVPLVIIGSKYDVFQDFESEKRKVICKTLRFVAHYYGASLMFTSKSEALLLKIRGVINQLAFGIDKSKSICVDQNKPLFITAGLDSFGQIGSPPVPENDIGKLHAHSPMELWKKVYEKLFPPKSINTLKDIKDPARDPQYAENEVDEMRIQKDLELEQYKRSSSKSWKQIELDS
UniProt Q16610: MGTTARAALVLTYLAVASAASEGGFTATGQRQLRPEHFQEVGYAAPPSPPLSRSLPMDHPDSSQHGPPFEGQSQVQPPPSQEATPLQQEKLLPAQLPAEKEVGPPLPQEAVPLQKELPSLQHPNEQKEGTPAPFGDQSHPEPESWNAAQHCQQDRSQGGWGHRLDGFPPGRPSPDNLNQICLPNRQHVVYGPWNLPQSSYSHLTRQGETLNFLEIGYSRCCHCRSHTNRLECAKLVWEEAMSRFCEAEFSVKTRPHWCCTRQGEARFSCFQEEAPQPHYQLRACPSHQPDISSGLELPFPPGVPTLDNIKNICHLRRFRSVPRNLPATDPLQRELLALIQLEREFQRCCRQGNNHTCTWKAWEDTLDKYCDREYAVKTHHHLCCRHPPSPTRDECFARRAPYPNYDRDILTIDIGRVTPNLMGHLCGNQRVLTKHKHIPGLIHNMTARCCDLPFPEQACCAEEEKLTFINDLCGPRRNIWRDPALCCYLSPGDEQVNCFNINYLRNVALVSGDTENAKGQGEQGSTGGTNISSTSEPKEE
UniProt O14576, whole entry, looked up: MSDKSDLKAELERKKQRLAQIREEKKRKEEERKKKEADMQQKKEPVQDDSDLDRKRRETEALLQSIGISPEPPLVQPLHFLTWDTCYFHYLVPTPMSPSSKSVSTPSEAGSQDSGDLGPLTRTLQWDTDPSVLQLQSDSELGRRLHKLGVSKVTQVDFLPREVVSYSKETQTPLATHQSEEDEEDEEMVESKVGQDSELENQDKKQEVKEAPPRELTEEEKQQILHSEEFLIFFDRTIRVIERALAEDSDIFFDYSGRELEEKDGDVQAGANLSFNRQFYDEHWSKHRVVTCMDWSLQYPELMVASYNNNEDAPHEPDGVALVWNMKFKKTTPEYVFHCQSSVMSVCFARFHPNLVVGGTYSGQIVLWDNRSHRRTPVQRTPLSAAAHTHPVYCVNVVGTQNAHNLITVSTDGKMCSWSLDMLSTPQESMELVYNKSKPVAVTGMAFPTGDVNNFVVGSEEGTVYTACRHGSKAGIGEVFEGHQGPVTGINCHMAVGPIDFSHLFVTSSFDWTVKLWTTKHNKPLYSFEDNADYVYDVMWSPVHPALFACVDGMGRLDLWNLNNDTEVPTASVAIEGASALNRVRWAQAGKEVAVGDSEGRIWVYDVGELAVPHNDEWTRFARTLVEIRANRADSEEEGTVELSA
UniProt Q86YN1: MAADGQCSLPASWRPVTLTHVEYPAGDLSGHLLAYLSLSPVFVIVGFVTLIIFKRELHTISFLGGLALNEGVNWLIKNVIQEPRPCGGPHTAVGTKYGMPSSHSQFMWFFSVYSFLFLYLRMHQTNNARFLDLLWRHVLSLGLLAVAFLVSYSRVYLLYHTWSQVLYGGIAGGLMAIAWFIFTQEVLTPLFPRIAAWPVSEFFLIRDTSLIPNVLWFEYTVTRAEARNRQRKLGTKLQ
UniProt Q4LDG9: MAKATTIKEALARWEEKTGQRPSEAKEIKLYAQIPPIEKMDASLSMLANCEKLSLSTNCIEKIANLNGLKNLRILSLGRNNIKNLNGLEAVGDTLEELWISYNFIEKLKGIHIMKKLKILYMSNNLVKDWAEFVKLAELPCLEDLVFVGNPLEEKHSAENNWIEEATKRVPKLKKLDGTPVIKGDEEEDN
UniProt Q6Y2X3: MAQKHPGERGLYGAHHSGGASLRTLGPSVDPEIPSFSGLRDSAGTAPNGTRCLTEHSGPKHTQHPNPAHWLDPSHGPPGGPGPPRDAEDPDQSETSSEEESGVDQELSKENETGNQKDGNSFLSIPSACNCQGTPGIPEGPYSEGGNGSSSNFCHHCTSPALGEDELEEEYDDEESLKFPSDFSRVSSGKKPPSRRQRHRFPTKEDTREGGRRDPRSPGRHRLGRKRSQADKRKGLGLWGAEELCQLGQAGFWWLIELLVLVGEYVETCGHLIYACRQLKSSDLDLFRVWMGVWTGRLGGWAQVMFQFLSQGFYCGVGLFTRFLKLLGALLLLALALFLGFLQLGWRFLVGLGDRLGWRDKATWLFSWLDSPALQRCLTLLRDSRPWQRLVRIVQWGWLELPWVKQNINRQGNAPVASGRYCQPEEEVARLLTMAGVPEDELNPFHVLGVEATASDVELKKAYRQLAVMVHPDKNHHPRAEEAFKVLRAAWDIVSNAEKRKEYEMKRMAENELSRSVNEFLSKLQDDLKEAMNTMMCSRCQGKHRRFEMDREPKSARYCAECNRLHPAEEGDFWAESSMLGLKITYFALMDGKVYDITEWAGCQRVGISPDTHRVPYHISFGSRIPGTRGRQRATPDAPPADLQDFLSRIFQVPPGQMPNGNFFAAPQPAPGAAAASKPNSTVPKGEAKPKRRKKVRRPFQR
UniProt Q9H1X3: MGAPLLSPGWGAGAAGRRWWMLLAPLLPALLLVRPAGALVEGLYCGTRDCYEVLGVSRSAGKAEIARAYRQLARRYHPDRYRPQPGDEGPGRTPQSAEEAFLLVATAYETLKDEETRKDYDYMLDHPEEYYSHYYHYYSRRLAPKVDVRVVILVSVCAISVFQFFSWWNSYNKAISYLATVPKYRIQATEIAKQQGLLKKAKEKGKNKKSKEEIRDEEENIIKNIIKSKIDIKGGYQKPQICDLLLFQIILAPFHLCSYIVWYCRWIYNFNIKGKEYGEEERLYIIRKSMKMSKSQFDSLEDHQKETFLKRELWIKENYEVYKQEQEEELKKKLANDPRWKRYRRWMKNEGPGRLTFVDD

Key:
Experiment in all cases: log2 fold change, soluble protein after heating vs DMSO (PISA); higher = thermal stabilisation; K562 cells, 10 uM, 30 min; active = over 0.2 and 3.5 SD of the protein, either way, in both replicates (recomputed)
[1] = compound: CS(=O)(=O)c1ccc(-c2cnc(N)c(C(=O)Nc3ccccc3)n2)cc1
Procedure, shortened: (§1)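 K562 cells at 2×10^6 cells/mL were treated with 10 μM compound for 30 min. Aliquots were heated for 3 min across 48°C-58°C, pooled, and extracted in PBS with 0.5% NP-40 at 4°C; soluble protein was the supernatant after 21,000xg for 90 min. Soluble protein was quantified by TMTpro 16plex LC-MS/MS with channel sums equalised, and reported as log2 fold change in thermal stability against DMSO controls, with values from duplicates.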

[2] = compound: C[C@@H]1COCCN1C2=NC(=NC(=C2)C3(CC3)S(=O)(=O)C)C4=C5C=CNC5=CC=C4
Procedure, shortened: as §1

[3] = compound: C[C@H](C1=CC=C(C=C1)C(=O)NC2=C3C=CNC3=NC=C2)N
Procedure, shortened: as §1

bafetinib = compound: Cc1ccc(NC(=O)c2ccc(CN3CC[C@H](N(C)C)C3)c(C(F)(F)F)c2)cc1Nc1nccc(-c2cncnc2)n1 [bafetinib]
Procedure, shortened: as §1

nilotinib = compound: Cc1cn(-c2cc(NC(=O)c3ccc(C)c(Nc4nccc(-c5cccnc5)n4)c3)cc(C(F)(F)F)c2)cn1 [nilotinib]
Procedure, shortened: as §1

[4] = compound: Cc1nc(Nc2n[nH]c3c2CN(C(=O)N[C@H](CN(C)C)c2ccccc2)C3(C)C)c2sccc2n1
Procedure, shortened: as §1

[5] = compound: Cc1ncc(-c2ccnc(Nc3ccc(S(C)(=O)=O)cc3)n2)n1C(C)C
Procedure, shortened: as §1

[6] = compound: Cn1cc(-c2ccc3c(c2)CCN3C(=O)Cc2cccc(C(F)(F)F)c2)c2c(N)ncnc21
Procedure, shortened: as §1

crizotinib = compound: C[C@@H](Oc1cc(-c2cnn(C3CCNCC3)c2)cnc1N)c1c(Cl)ccc(F)c1Cl [crizotinib]
Procedure, shortened: as §1

duvelisib = compound: C[C@H](Nc1ncnc2nc[nH]c12)c1cc2cccc(Cl)c2c(=O)n1-c1ccccc1 [duvelisib]
Procedure, shortened: as §1

gandotinib = compound: Cc1cc(Nc2cc(CN3CCOCC3)c3nc(C)c(Cc4ccc(Cl)cc4F)n3n2)n[nH]1 [gandotinib]
Procedure, shortened: as §1

tozasertib = compound: Cc1cc(Nc2cc(N3CCN(C)CC3)nc(Sc3ccc(NC(=O)C4CC4)cc3)n2)n[nH]1 [tozasertib]
Procedure, shortened: as §1

[7] = compound: Cc1cc(SCc2sc(-c3ccc(C(F)(F)F)cc3)nc2C)ccc1OCC(=O)O
Procedure, shortened: as §1

doramapimod = compound: Cc1ccc(-n2nc(C(C)(C)C)cc2NC(=O)Nc2ccc(OCCN3CCOCC3)c3ccccc23)cc1 [doramapimod]
Procedure, shortened: as §1

ispinesib = compound: Cc1ccc(C(=O)N(CCCN)[C@@H](c2nc3cc(Cl)ccc3c(=O)n2Cc2ccccc2)C(C)C)cc1 [ispinesib]
Procedure, shortened: as §1

[8] = compound: Cc1cccc(CC(=O)N2CCc3c2ccc(-c2cn(C)c4ncnc(N)c24)c3F)n1
Procedure, shortened: as §1

dasatinib = compound: Cc1nc(Nc2ncc(C(=O)Nc3c(C)cccc3Cl)s2)cc(N2CCN(CCO)CC2)n1 [dasatinib]
Procedure, shortened: as §1

[9] = compound: Cn1cc(-c2ccc3nnc(C(F)(F)c4ccc5ncccc5c4)n3n2)cn1
Procedure, shortened: as §1

mubritinib = compound: FC(F)(F)c1ccc(/C=C/c2nc(COc3ccc(CCCCn4ccnn4)cc3)co2)cc1 [mubritinib]
Procedure, shortened: as §1

tipifarnib = compound: Cn1cncc1[C@@](N)(c1ccc(Cl)cc1)c1ccc2c(c1)c(-c1cccc(Cl)c1)cc(=O)n2C [tipifarnib]
Procedure, shortened: as §1

Measured: log2 fold change

DOLK (UniProt Q9UPQ8)
inactive: [1] -0.062 | [2] -0.214 | [3] -0.104 | bafetinib -0.099 | nilotinib -0.016 | [4] -0.059 | [5] -0.082 | [6] -0.242

DXO (UniProt O77932)
inactive: crizotinib 0.022 | [2] 0.093 | [3] 0 | duvelisib 0.223 | gandotinib -0.119 | tozasertib -0.075 | [7] -0.059 | doramapimod -0.001 | ispinesib -0.053 | bafetinib 0 | [8] -0.097 | nilotinib 0.046 | [4] 0 | dasatinib -0.04 | [5] -0.008 | [6] 0.012 | [9] 0.046 | mubritinib 0.088

DNAJB1 (UniProt M0R128)
inactive: [3] -0.018 | bafetinib -0.252 | [6] -0.022

DVL2 (UniProt O14641)
inactive: [1] 0.103 | [2] -0.084 | gandotinib 0.347 | [8] 0.045 | tipifarnib 0.217

DPCD (UniProt Q9BVM2)
inactive: crizotinib -0.173 | gandotinib 0.02 | doramapimod -0.183 | [8] 0.06

DNPH1 (UniProt H0Y8X4)
inactive: [3] -0.053 | duvelisib -0.007 | tozasertib -0.009 | [7] 0.174 | ispinesib -0.001 | nilotinib 0.127 | [4] 0.264 | dasatinib 0.14 | [5] -0.105 | [6] 0.014 | [9] -0.349 | tipifarnib 0.177 | mubritinib 0.203

Two consecutive records from above, quoted:
DVL2 (UniProt O14641)
inactive: [1] 0.103 | [2] -0.084 | gandotinib 0.347 | [8] 0.045 | tipifarnib 0.217

DPCD (UniProt Q9BVM2)
inactive: crizotinib -0.173 | gandotinib 0.02 | doramapimod -0.183 | [8] 0.06

The results go on:

DOP1A (UniProt Q5JWR5)
inactive: [2] 0.007 | bafetinib -0.091 | mubritinib 0.127

DNAJC30 (UniProt Q96LL9)
inactive: crizotinib 0 | doramapimod -0.043

ECT2 isoform 3 (UniProt Q9H8V3)
inactive: [1] -0.057 | [2] -0.112 | ispinesib -0.035 | [9] 0.08

DNM1 (UniProt Q05193)
inactive: [2] -0.174 | gandotinib -0.2 | [8] 0.048

DNAJB2 (UniProt P25686)
inactive: [2] -0.08 | duvelisib 0.084 | gandotinib -0.065 | [7] 0.005 | ispinesib 0.01 | [8] 0.159 | dasatinib -0.129 | [9] -0.037 | tipifarnib 0.052

DRAP1 (UniProt E9PQX9)
inactive: tozasertib -0.119 | tipifarnib 0.094 | mubritinib 0.274

DNAJB9 (UniProt Q9UBS3)
inactive: gandotinib 0.196 | [8] -0.213

DROSHA (UniProt Q9NRR4)
inactive: [2] -0.219 | [3] 0.441 | tozasertib 0.209 | [6] -0.284

DNAJC15 (UniProt Q9Y5T4)
inactive: [1] 0.041 | tipifarnib 0.385

DNAJC4 (UniProt Q9NNZ3)
inactive: ispinesib -0.178 | [9] -0.043 | tipifarnib 0.192

DYNC2LI1 isoform 2 (UniProt Q8TCX1)
inactive: [1] -0.004 | [2] 0.101 | [3] 0.077 | ispinesib 0.051 | [6] 0.183 | [9] -0.044 | tipifarnib -0.081 | mubritinib -0.139

DSTYK (UniProt Q6XUX3)
inactive: [2] 0.216 | [3] 0.018 | duvelisib -0.056 | gandotinib -0.108 | tozasertib -0.05 | [7] -0.048 | bafetinib 0.12 | [8] 0.058 | nilotinib 0.018 | [4] 0.111 | dasatinib -0.14 | [5] -0.086 | [6] 0.138

DOCK2 (UniProt Q92608)
inactive: ispinesib -0.332 | [9] 0.046

DPYSL3 isoform 2 (UniProt Q14195)
inactive: duvelisib 0.492 | gandotinib -0.137 | [7] 0.257 | [8] 0 | dasatinib -0.443 | tipifarnib 0.043

DNAJB14 (UniProt H7C494)
inactive: crizotinib 0.079 | duvelisib 0.099 | gandotinib -0.109 | [7] -0.032 | doramapimod 0.001 | [8] -0.076 | nilotinib -0.001 | [4] 0.04 | dasatinib -0.18 | [5] 0.052 | tipifarnib 0.14 | mubritinib 0.154

ECM1 isoform 2 (UniProt Q16610)
inactive: tozasertib 0.279 | bafetinib 0.238 | nilotinib 0.452 | [4] 0.016 | [5] 0.582 | mubritinib -0.289

DYNLT3 (UniProt P51808)
inactive: [3] -0.088 | bafetinib -0.064 | nilotinib 0.014 | [4] -0.064 | [5] -0.089 | [6] -0.061

DNMT3B (UniProt Q9UBC3)
inactive: duvelisib 0.683 | gandotinib 0.05 | [7] 0.388 | [8] 0.068 | dasatinib -0.024

DPY19L2 (UniProt Q6NUT2)
inactive: crizotinib 0.104 | gandotinib -0.082 | tozasertib 0.09 | doramapimod -0.04 | bafetinib 0.021 | [8] 0.002 | nilotinib 0.057 | [4] -0.153 | [5] 0.05 | mubritinib -0.097

DYNC1I1 (UniProt O14576)
inactive: [2] 0.14 | ispinesib 0.149 | [9] 0 | tipifarnib 0.007

E4F1 (UniProt H3BN24)
inactive: ispinesib 0.035 | [9] -0.104

DOLPP1 (UniProt Q86YN1)
inactive: crizotinib -0.082 | [3] -0.135 | doramapimod -0.026 | bafetinib -0.089 | nilotinib 0.035 | [4] -0.062 | [5] -0.023 | [6] -0.045 | [9] -0.006 | tipifarnib 0.075 | mubritinib 0.021
active: ispinesib 0.358

DNAL1 (UniProt Q4LDG9)
inactive: crizotinib -0.035 | [2] 0.011 | [3] 0.025 | [7] -0.102 | doramapimod -0.067 | ispinesib -0.082 | bafetinib 0.035 | dasatinib 0.017 | [6] 0.186 | [9] 0.012

DUSP14 (UniProt O95147)
inactive: [2] -0.382 | [3] 0.076 | duvelisib -0.185 | gandotinib -0.215 | tozasertib 0.035 | [7] 0.106 | bafetinib 0.135 | [8] 0.027 | dasatinib 0.058 | [6] 0.084 | mubritinib 0.149

DNAJC14 (UniProt Q6Y2X3)
inactive: mubritinib -0.322

DNAJC25 (UniProt Q9H1X3)
inactive: crizotinib -0.214 | tozasertib -0.064 | doramapimod -0.089 | bafetinib -0.107 | tipifarnib -0.026

DUS1L (UniProt Q6P1R4)
inactive: [3] 0.224 | gandotinib 0.001 | tozasertib 0.085 | ispinesib -0.097 | [8] 0 | [6] -0.095 | [9] -0.077 | mubritinib -0.223
